Earlier results, collected in patent publication US20070088086A1, “Method of using synthetic L-Se-methylselenocysteine as a nutriceutical and a method of its synthesis” (PharmaSe, Incorporated, priority 1999, published 2007).
Some of these results come from one statement about several compounds together.

Test system: cells in culture
Conditions: cited from earlier work

## C[Se]CC[C@H](N)C(=O)O [L-selenomethionine]
  higher concentration required to induce apoptosis and cell death, relative to selenite: 8-10 fold
